Values of other authors, collected in patent US20060035883A1, “Novel serotonin receptor ligands and their uses thereof” (priority 2004, published 2006).
At least one structure is not confirmed: it was looked up by name or label, or the drawing left a doubt.

Tested on: behavioral sensitization due to prior cocaine use
Conditions: reference [10]

## CN1CCN2c3ccccc3Cc3ccccc3C2C1 (stereo not shown) [Mianserin]
  Effect on behavioral sensitization due to prior cocaine use: reverse behavioral sensitization
